The target in assay [1] is MUC1-C (MUC1 C-terminal subunit) (human (endogenous in WaGa)). Briefly: co-IP; DNase-treated nuclear lysates of WaGa cells precipitated with anti-MUC1-C (or control IgG) at 4 °C overnight, Dynabeads Protein G; washes with 20 mM Tris-HCl pH 8.0, 0.5% NP40, 150 mM NaCl; immunoblot. (In western blotting, separated proteins are transferred to a membrane and probed.)
For assay [2], the target named is GST-MUC1-CD (FL; aa 1-72) (UniProt P15941). Briefly: pull-down; GST or GST-MUC1-CD bound to glutathione beads incubated with equimolar purified MYCL; adsorbates immunoblotted with anti-MYCL; both purified.

Protein sequences, listed by entry. Tags and fused reporters are not part of them. Lines headed by an entry give the natural chain unless they say otherwise; changes in a name come on top.
UniProt P15941: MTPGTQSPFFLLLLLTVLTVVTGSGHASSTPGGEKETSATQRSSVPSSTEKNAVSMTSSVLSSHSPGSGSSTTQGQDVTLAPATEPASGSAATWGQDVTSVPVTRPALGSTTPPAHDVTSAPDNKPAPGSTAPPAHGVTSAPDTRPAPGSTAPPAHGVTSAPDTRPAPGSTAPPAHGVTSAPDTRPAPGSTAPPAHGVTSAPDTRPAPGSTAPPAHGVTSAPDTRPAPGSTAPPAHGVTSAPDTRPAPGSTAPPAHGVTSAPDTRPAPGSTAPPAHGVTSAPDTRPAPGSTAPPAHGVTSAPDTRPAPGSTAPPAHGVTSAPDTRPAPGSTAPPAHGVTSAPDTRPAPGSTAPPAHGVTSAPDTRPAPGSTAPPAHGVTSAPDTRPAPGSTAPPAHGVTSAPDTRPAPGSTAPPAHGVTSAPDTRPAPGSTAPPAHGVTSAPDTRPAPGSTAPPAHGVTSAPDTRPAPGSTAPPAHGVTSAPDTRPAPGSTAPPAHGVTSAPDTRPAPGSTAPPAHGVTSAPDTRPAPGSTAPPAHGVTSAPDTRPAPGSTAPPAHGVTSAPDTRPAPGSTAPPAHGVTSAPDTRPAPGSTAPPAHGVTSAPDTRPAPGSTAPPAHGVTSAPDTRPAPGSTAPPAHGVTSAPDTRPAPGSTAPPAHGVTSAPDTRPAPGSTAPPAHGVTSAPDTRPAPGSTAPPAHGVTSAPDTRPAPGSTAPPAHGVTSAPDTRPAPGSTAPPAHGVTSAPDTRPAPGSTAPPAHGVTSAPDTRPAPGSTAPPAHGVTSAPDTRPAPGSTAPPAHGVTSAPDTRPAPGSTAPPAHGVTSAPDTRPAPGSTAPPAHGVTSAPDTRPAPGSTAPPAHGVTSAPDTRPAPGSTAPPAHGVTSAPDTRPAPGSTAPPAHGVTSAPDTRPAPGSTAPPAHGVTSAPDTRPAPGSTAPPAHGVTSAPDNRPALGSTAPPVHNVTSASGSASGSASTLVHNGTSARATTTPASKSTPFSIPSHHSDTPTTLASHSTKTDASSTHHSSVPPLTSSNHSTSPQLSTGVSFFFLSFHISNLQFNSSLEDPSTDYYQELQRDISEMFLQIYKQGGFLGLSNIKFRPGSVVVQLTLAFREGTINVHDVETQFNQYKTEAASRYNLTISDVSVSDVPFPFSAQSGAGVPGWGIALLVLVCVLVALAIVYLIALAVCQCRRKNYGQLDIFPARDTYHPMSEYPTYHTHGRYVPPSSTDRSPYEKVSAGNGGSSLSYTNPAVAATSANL

The source of these data is article PMC9249628.

These are yes or no findings as the source states them, for the method shown. A result given as binding can be weak or reduced; the word gives no strength. Where a sequence is shown, tags or fusion partners need not be part of it. For some assays here: Binding seen in cells or lysates may run through a third protein.

B1: MYCL (L-MYC) (protein, UniProt P12524 1-364)
chain: MDYDSYQHYFYDYDCGEDFYRSTAPSEDIWKKFELVPSPPTSPPWGLGPGAGDPAPGIGPPEPWPGGCTGDEAESRGHSKGWGRNYASIIRRDCMWSGFSARERLERAVSDRLAPGAPRGNPPKASAAPDCTPSLEAGNPAPAAPCPLGEPKTQACSGSESPSDSENEEIDVVTVEKRQSLGIRKPVTITVRADPLDPCMKHFHISIHQQQHNYAARFPPESCSQEEASERGPQEEVLERDAAGEKEDEEDEEIVSPPPVESEAAQSCHPKPVSSDTEDVTKRKNHNFLERKRRNDLRSRFLALRDQVPTLASCSKAPKVVILSKALEYLQALVGAEKRMATEKRQLRCRQQQLQKRIAYLTGY
B1: the binding result in assay [1] is reported as “binds”.

B2: purified full-length MYCL (aa 1-364) (protein, UniProt P12524 1-364)
chain: MDYDSYQHYFYDYDCGEDFYRSTAPSEDIWKKFELVPSPPTSPPWGLGPGAGDPAPGIGPPEPWPGGCTGDEAESRGHSKGWGRNYASIIRRDCMWSGFSARERLERAVSDRLAPGAPRGNPPKASAAPDCTPSLEAGNPAPAAPCPLGEPKTQACSGSESPSDSENEEIDVVTVEKRQSLGIRKPVTITVRADPLDPCMKHFHISIHQQQHNYAARFPPESCSQEEASERGPQEEVLERDAAGEKEDEEDEEIVSPPPVESEAAQSCHPKPVSSDTEDVTKRKNHNFLERKRRNDLRSRFLALRDQVPTLASCSKAPKVVILSKALEYLQALVGAEKRMATEKRQLRCRQQQLQKRIAYLTGY
Regarding B2, the binding result in assay [2] is listed as “binds”.
